Results: publication PMC5006057
Results are given in words; binding and its absence hold for the method and conditions named. In cells and extracts the contact can be indirect. Some entries that bind do so weakly or less than the wild type. One block for each substance: values may come before it.

The chains behind the UniProt entries cited, without tags or fusion partners. Residues count along the entry.
UniProt O75460, residues 19-977: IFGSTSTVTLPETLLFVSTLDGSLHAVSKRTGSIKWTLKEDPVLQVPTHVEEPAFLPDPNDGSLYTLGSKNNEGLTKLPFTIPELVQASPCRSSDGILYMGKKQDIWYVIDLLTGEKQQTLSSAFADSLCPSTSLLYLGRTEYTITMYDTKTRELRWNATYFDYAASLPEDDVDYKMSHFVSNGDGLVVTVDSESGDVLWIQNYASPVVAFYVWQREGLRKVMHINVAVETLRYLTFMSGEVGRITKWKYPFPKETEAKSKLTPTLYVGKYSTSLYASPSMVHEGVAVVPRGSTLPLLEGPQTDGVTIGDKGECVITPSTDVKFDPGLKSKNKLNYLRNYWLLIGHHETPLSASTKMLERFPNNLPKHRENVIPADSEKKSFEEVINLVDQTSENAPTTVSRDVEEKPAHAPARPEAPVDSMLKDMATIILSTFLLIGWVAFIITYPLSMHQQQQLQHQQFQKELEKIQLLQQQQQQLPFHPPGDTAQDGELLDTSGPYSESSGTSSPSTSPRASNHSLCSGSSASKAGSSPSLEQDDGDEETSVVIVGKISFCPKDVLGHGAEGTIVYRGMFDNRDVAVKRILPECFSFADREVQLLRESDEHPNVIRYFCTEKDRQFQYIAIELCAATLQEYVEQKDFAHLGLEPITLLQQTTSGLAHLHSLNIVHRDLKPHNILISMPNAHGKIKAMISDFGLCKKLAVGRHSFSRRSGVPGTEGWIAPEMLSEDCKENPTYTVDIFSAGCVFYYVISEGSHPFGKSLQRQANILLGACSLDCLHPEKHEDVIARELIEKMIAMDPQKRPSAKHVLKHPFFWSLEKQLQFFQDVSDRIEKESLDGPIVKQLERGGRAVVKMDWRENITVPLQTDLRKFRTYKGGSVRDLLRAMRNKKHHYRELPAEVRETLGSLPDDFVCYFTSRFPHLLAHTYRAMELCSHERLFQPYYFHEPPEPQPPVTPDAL
UniProt Q05421: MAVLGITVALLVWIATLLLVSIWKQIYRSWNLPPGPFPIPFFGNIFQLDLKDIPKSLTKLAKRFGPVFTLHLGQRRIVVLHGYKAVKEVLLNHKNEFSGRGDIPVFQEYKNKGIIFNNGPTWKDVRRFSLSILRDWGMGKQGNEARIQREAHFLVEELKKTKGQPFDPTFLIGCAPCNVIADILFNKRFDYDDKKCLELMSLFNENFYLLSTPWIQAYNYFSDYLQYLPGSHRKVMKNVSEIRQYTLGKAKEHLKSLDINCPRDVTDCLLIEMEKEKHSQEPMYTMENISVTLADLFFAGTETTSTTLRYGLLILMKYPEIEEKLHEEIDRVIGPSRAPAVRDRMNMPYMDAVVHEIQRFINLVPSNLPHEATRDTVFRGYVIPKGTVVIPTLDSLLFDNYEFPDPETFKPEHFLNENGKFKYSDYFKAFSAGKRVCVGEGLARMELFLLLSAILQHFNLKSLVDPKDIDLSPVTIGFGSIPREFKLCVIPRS
UniProt P55061: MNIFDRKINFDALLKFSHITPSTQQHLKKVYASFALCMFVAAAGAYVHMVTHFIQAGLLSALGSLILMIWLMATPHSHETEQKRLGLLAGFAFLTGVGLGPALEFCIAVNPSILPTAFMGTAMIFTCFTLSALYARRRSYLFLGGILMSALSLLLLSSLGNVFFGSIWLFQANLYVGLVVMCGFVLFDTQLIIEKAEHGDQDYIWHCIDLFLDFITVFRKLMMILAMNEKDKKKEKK
UniProt P05181: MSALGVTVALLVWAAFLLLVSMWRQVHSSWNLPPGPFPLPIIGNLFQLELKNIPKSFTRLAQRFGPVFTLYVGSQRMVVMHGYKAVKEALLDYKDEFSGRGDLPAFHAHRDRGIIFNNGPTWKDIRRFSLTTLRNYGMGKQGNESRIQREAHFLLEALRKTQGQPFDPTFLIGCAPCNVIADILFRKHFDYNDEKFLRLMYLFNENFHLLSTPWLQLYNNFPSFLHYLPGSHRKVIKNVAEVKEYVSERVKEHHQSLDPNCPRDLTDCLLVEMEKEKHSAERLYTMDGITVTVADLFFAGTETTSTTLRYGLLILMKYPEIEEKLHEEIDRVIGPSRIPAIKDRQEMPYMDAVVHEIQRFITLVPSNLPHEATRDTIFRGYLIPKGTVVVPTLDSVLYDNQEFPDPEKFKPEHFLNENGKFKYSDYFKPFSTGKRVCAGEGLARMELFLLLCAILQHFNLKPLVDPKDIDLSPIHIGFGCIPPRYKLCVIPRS

Tests used:
[1] = target: T1, NADPH-cytochrome CYP reductase (CPR), mouse liver (mouse (endogenous in liver)) (UniProt P37040); test: co-IP; liver lysates of high-fat diet-fed BI-1 wild-type and BI-1 knock-out mice, and of normal or high-fat diet-fed mice injected with GFP or BI-1 adenovirus; protein A/G-Sepharose; which protein was precipitated is not told
T1 sequence: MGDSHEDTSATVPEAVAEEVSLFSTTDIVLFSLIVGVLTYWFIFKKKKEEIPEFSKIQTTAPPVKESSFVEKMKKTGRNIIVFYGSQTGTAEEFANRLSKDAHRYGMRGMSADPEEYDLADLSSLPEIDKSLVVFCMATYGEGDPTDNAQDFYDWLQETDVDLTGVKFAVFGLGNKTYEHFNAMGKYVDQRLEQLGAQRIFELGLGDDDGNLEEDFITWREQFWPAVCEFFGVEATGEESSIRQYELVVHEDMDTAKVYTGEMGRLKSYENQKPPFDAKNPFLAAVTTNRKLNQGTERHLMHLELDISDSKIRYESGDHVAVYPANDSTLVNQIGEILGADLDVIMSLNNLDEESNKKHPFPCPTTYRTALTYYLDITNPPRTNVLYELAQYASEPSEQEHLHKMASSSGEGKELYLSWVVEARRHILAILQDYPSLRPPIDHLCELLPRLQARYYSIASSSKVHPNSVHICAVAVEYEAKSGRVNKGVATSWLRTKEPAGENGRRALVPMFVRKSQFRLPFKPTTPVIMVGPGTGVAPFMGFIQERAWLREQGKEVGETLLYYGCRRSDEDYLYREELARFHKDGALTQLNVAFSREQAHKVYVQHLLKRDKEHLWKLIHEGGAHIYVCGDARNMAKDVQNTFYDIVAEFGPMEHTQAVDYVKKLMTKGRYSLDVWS

IRE-1α [2] = target: IRE-1α (UniProt O75460); test: co-IP; Fig. S11: BI-1 with CPR and with IRE-1α, without treatment and over a time course of free fatty acid stress; cells and precipitating antibody not given
[3] = target: T2, NADPH-cytochrome CYP reductase (CPR), HepG2 cells (human (endogenous in HepG2)) (UniProt P16435); test: as above
T2 sequence: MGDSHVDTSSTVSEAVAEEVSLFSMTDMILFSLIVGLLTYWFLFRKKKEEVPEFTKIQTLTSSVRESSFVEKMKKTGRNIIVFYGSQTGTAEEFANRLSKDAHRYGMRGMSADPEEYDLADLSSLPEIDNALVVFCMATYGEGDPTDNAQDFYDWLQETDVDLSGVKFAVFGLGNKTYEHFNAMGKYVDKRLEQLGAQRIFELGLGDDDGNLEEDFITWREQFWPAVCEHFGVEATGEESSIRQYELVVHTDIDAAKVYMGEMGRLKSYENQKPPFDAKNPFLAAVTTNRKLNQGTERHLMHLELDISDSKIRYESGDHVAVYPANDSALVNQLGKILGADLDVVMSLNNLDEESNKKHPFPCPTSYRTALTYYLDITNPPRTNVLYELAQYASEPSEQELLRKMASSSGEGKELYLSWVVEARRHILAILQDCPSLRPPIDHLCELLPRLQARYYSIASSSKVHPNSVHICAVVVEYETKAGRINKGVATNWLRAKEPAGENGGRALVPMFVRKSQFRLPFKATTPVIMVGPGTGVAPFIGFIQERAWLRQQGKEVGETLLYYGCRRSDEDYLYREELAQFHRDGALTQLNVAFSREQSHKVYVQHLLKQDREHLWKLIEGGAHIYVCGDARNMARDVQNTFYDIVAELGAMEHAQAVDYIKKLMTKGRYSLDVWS

IRE-1α [4] = target: IRE-1α (UniProt O75460); test: co-IP; Fig. S11: after long free fatty acid (palmitate) treatment (more than 6 hours; 12-hour time point)
[5] = target: T2, NADPH-cytochrome CYP reductase (CPR), HepG2 cells (human (endogenous in HepG2)); test: co-IP; lysates of HepG2 Neo and BI-1 cells treated with 250 uM palmitate for indicated periods; protein A/G-Sepharose; which protein was precipitated is not told

binding [1]: binds
Substance: cytochrome p450 2E1 (CYP2E1), mouse liver (from UniProt Q05421 1-493) (enzyme)

binding (IRE-1α [2]): binds
binding [3]: binds
binding (IRE-1α [4]): binds weakly
Substance: Bax inhibitor-1 (BI-1), HA-tagged, stably expressed in HepG2 (from UniProt P55061 1-237)

binding [5]: binds
Substance: cytochrome p450 2E1 (CYP2E1), HepG2 cells (from UniProt P05181 1-493) (enzyme)
